# Measured values from publication PMC7819943, “Rice protein-binding microarrays: a tool to detect cis-acting elements near promoter regions in rice”.
# The chains behind the UniProt entries cited, without tags or fusion partners.
# UniProt Q0JBA9, entry or part of it: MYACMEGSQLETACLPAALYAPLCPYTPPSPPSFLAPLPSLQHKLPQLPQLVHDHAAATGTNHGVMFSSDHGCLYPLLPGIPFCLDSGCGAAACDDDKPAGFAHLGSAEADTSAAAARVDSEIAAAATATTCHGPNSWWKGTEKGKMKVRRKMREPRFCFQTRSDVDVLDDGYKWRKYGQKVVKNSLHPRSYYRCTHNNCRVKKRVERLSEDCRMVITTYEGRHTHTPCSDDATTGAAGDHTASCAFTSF
# The list shows a part of the results.
# Biological target: OsWRKY34 (Oryza sativa, UniProt Q0JBA9 1-250)
# Assay: protein-binding microarray (RPBM); PBS, 2% BSA, 51.3 ng/ul salmon testes DNA, 50 uM zinc acetate, 200 nM TF, 25 C, 1 h; high values mean tight binding
# Details: protein: recombinant; tags: N-terminal polyhistidine and DsRed monomer fusion (pET32a); label: CyDye5-dUTP incorporated in the synthesized complementary strand; 3' TTTTT single-stranded linker to array surface; dsDNA, one strand shown
# Outline: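 An Axon 4000B scanner gave the binding signal as per-feature fluorescence intensity in arbitrary units. This followed washing of a custom Agilent array that had been incubated for 1 h at 25 °C with 200 nM protein in PBS, 2% BSA, salmon testes DNA and 50 µM zinc acetate. The proteins were transcription factors fused at the N-terminus to polyhistidine and DsRed, expressed in E. coli BL21-CodonPlus and purified on Ni–NTA.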
row,Sequence,binding signal
1,CTGCTGCGAGGGTGGGTGTTGCTTGTACCGGGCGGGGATGCGGAGTCACCTAGTGCAG,20300 fluorescence intensity (a.u.)
2,GCCGCTCCTCGGCCACGCGGTGACCTATTGCTTGACTTTTCGGAGTCACCTAGTGCAG,9710 fluorescence intensity (a.u.)
3,AAATCGAGCCGAGCCGACCACTCGTCCTTATTCGCTCGAGCGGAGTCACCTAGTGCAG,8680 fluorescence intensity (a.u.)
4,TTCGGATCTATATACTACCTGGTTAATTCCTATCTTCTGACGGAGTCACCTAGTGCAG,9680 fluorescence intensity (a.u.)
5,TCCTCTTGCCTCCTCCGCTGAGGCAGCCAGTGCGTGCGCCCGGAGTCACCTAGTGCAG,8460 fluorescence intensity (a.u.)
6,TATTTTCTTTATTTTAACATTGAGAAATTTTCGTTTTTTTCGGAGTCACCTAGTGCAG,8680 fluorescence intensity (a.u.)
7,GGGTATTTCTGTCCTTTTGTTTGTTTCACGAGAGAAAAAACGGAGTCACCTAGTGCAG,9990 fluorescence intensity (a.u.)
8,AAAAAGAACTGAGTAGGGGTGGACATTTACAATAAAATAACGGAGTCACCTAGTGCAG,8140 fluorescence intensity (a.u.)
9,GCCTTTTGCCTCTCTTTCTACTCTCTTTCTTGGCCGTCTCCGGAGTCACCTAGTGCAG,8470 fluorescence intensity (a.u.)
10,CTTTATATGTGATTAAATATTTTTAATTTTTTCATAAATTCGGAGTCACCTAGTGCAG,8390 fluorescence intensity (a.u.)
11,TGTTTACTGTAGCATCACATTGTTAAATCATAGCGTAATTCGGAGTCACCTAGTGCAG,8600 fluorescence intensity (a.u.)
12,GCTGCTTTGTTTCTCGTCGCCGTGTGCCTGCGCGCTTGCTCGGAGTCACCTAGTGCAG,8060 fluorescence intensity (a.u.)
13,GTTCATGTCACAGAAAAGTCAACCCACTTAGTTTAACGCCCGGAGTCACCTAGTGCAG,8680 fluorescence intensity (a.u.)
14,ATCGAGGTATTCAAAGTGAACTTATTTTCCATACGTATACCGGAGTCACCTAGTGCAG,8330 fluorescence intensity (a.u.)
15,TCGCACACCACAACACACACCTGCCGGCCCCATCACCCCGCGGAGTCACCTAGTGCAG,8420 fluorescence intensity (a.u.)
16,AATTATCTCAAATACTAATTGTTCGTCATGAAATAATAATCGGAGTCACCTAGTGCAG,8670 fluorescence intensity (a.u.)
17,GGTTTGTTCGTGTCTTTTGTGGTGATTGCATTTGATTGGGCGGAGTCACCTAGTGCAG,9920 fluorescence intensity (a.u.)
18,CCCAACTCTACCTTTTTATTTTATTTTGTGAGAGTTTACACGGAGTCACCTAGTGCAG,8410 fluorescence intensity (a.u.)
19,ACACTCGCCGAGCAAGTTTATGTACCTTATTTTTATCGATCGGAGTCACCTAGTGCAG,9110 fluorescence intensity (a.u.)
20,AGCAAGACACCCAGTTGTTGACTTCTAATCAGTACTCTGCCGGAGTCACCTAGTGCAG,8500 fluorescence intensity (a.u.)
21,AAAACCTGAATCCTGCACTGTTTTTAAGTTCGTTTCTGAACGGAGTCACCTAGTGCAG,8600 fluorescence intensity (a.u.)

# Some of the entries so far, with bars between the fields:
row | Sequence | binding signal
3 | AAATCGAGCCGAGCCGACCACTCGTCCTTATTCGCTCGAGCGGAGTCACCTAGTGCAG | 8680 fluorescence intensity (a.u.)
4 | TTCGGATCTATATACTACCTGGTTAATTCCTATCTTCTGACGGAGTCACCTAGTGCAG | 9680 fluorescence intensity (a.u.)
5 | TCCTCTTGCCTCCTCCGCTGAGGCAGCCAGTGCGTGCGCCCGGAGTCACCTAGTGCAG | 8460 fluorescence intensity (a.u.)

# Next part

row,Sequence,binding signal
1,AATGTTTGACGCCGTTGACTTTTTAGCACATGTTGACCGTCGGAGTCACCTAGTGCAG,42200 fluorescence intensity (a.u.)
2,TTTTCCCTCAAGAGAACGCGCCGTTATTTTTTTACGTCACCGGAGTCACCTAGTGCAG,8750 fluorescence intensity (a.u.)
3,ATCACACGCTGCACCTCTCCCGCGCCCACCAGTCCACTCACGGAGTCACCTAGTGCAG,18500 fluorescence intensity (a.u.)
4,TTGCTTACCGTGTTGTGTTGGTCTCATCGTCTGTCTCGCTCGGAGTCACCTAGTGCAG,9170 fluorescence intensity (a.u.)
5,TCATATTATAAATTGTTTTGACTTTTTTCCTAATCAAACTCGGAGTCACCTAGTGCAG,10600 fluorescence intensity (a.u.)
6,TATTAAACTGTCTTGTATGGACTCACTCGCTCACACCTTCCGGAGTCACCTAGTGCAG,9370 fluorescence intensity (a.u.)
7,ACTTTTTCAGTTTTTGCGTGTGACATGGTTGCTATTGGCTCGGAGTCACCTAGTGCAG,8560 fluorescence intensity (a.u.)
8,CTATCGCCCATTCGCCCCTTCGATCTTTTATTTTTCCTTCCGGAGTCACCTAGTGCAG,9080 fluorescence intensity (a.u.)
9,ATACTTTTTGTGGCATGCCTGGACAATCTTTAAGGTTTCACGGAGTCACCTAGTGCAG,8870 fluorescence intensity (a.u.)
10,CTATATATCGAGACCGATCGTATCCAGGCGCACGACACTTCGGAGTCACCTAGTGCAG,8270 fluorescence intensity (a.u.)
11,TTGCTTGGTTTCTGCCACTTCTCATGCAGTGACTTGTACTCGGAGTCACCTAGTGCAG,8820 fluorescence intensity (a.u.)
12,TTAAGCTTGAATCCTATTTTTCTTCCTTGTTTGTGTTTTGCGGAGTCACCTAGTGCAG,8850 fluorescence intensity (a.u.)
13,GAGGGAGTAATAGCTTTCTCATGTGCGTCAGCTTAATTTTCGGAGTCACCTAGTGCAG,8270 fluorescence intensity (a.u.)
14,GTTGGGTTGAGGTGTCCGATTTTTCCTCCTTCATTGGACGCGGAGTCACCTAGTGCAG,8680 fluorescence intensity (a.u.)
15,GCTTCACGGGCCCGACCTATGTGGCTTGGTTTTTCTTTACCGGAGTCACCTAGTGCAG,10200 fluorescence intensity (a.u.)
16,CGTCGCACCCAACCCACCAACCACCCGCCGCACGAAACCTCGGAGTCACCTAGTGCAG,9100 fluorescence intensity (a.u.)
17,GCAGCAACAAGAATTGACTTTGTGGCCTTTGTCCACGAACCGGAGTCACCTAGTGCAG,9580 fluorescence intensity (a.u.)
18,TCCACCTCGCCGCCATTTGATCGAACACCTGATAGCCATGCGGAGTCACCTAGTGCAG,8680 fluorescence intensity (a.u.)
19,CCGCCATCGCTACCCTCGGTCGTCGCTTGCCCCGACGACCCGGAGTCACCTAGTGCAG,8180 fluorescence intensity (a.u.)
20,CTCATCGTTCTTGTCCCCGTCCTGGTGCCAGCTGCTGCTCCGGAGTCACCTAGTGCAG,13600 fluorescence intensity (a.u.)
21,CTTAAGATCTAGTCTTTATACTCCATGCCAATCCTCGTGTCGGAGTCACCTAGTGCAG,10000 fluorescence intensity (a.u.)
